# Laboratory results reported in patent US20030095979A1, “Pharmaceutical preparations comprising modified peptides” (Cistem Biotechnologies GMBH, priority 2001, published 2003).
# Some results were stated once for a whole list of compounds, not compound by compound.
# Test system: SIINFEKL specific IFN-γ-producing T cells
# Assay: Example 1: mice vaccinated subcutaneously in the flank 3 times, splenocytes activated ex vivo with SIINFEKL, IFN-γ ELISpot assay
# Set-up: species or system mice (C57BL/6)
# Details: in combination with 100 μg poly-L-arginine; 100 μg peptide s.c. flank days 0, 21, 28; spleen one week after third vaccination
# Experimental: Groups of 4 mice (C75BL/6, femal, 8 weeks of age, H-2^b were injected subcutaneoulsy in the flank 3 times (days 0, 21 and 28) as follows (dose 100 μg of peptide, molarity adapted; +/−100 μg poly-L-arginine per mouse):
# One week after the third vaccination spleens were removed and the splenocytes were activated ex vivo with peptide SIINFEKL (“245”) to determine IFN-y-producing specific cells (ELISpot assay).
sequence,measurement,value
FIFIFISIINFEKL [SIINFEKL with FIFIFI added at the N-terminus],SIINFEKL specific T cells induced,more than 400 among 1 million splenocytes
